# According to article PMC5730846:
# Target: T1, Tsc1 (hamartin) (human (endogenous in HEK293)) (UniProt Q92574)
# T1 sequence: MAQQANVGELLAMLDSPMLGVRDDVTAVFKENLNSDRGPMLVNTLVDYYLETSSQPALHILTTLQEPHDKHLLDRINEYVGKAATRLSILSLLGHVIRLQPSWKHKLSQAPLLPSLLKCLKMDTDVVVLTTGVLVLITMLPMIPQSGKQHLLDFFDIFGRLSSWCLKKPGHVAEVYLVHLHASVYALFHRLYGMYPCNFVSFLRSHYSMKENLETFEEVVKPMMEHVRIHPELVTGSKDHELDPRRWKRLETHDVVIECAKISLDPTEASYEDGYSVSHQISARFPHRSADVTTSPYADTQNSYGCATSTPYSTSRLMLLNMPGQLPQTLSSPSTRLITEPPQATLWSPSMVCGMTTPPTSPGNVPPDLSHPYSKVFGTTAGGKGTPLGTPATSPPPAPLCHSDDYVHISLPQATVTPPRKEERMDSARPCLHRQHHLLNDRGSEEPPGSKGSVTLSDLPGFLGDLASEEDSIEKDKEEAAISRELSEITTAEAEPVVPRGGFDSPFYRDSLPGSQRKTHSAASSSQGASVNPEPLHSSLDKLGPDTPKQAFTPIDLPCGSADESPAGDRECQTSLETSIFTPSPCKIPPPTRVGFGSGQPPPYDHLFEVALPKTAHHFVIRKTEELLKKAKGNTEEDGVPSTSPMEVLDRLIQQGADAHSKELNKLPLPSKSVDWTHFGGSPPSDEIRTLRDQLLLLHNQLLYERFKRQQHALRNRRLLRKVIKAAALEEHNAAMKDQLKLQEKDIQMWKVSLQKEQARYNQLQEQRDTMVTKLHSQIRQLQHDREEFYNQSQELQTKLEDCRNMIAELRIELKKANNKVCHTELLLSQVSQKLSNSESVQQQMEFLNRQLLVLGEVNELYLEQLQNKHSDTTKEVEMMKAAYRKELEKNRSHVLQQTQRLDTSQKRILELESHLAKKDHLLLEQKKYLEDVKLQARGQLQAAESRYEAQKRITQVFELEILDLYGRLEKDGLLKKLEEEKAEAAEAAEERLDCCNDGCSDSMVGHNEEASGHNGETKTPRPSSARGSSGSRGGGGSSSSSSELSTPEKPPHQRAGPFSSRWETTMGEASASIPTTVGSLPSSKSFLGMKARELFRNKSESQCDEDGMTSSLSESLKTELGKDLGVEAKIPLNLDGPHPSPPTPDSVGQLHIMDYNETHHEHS
# Assay: co-IP; endogenous Tsc1 immunoprecipitated from HEK293 lysate with anti-Tsc1 antibody (IgG control); immunoblot
row,binding,Substance
1,binds,Akt (human (endogenous in HEK293))
2,binds,Hsp70 (human (endogenous in HEK293))

# No constants are given. Whether binding was seen depends on the method and setting. Binding seen in cells or lysates may run through a third protein. Binding can be weak; no strength is given.
